Measured values from the supplement of paper PMC11732987, “Enantioselective OTUD7B fragment discovery through chemoproteomics screening and high-throughput optimisation” (Communications Chemistry, 2025).
The list shows a part of the results. The data scatter; read single values as rough.

By UniProt entry, the sequences of proteins in these tests, tags left out. Where a name states a change or a piece, a line headed by the entry shows the natural chain unless it says otherwise. Residues count along the entry.
UniProt P46013: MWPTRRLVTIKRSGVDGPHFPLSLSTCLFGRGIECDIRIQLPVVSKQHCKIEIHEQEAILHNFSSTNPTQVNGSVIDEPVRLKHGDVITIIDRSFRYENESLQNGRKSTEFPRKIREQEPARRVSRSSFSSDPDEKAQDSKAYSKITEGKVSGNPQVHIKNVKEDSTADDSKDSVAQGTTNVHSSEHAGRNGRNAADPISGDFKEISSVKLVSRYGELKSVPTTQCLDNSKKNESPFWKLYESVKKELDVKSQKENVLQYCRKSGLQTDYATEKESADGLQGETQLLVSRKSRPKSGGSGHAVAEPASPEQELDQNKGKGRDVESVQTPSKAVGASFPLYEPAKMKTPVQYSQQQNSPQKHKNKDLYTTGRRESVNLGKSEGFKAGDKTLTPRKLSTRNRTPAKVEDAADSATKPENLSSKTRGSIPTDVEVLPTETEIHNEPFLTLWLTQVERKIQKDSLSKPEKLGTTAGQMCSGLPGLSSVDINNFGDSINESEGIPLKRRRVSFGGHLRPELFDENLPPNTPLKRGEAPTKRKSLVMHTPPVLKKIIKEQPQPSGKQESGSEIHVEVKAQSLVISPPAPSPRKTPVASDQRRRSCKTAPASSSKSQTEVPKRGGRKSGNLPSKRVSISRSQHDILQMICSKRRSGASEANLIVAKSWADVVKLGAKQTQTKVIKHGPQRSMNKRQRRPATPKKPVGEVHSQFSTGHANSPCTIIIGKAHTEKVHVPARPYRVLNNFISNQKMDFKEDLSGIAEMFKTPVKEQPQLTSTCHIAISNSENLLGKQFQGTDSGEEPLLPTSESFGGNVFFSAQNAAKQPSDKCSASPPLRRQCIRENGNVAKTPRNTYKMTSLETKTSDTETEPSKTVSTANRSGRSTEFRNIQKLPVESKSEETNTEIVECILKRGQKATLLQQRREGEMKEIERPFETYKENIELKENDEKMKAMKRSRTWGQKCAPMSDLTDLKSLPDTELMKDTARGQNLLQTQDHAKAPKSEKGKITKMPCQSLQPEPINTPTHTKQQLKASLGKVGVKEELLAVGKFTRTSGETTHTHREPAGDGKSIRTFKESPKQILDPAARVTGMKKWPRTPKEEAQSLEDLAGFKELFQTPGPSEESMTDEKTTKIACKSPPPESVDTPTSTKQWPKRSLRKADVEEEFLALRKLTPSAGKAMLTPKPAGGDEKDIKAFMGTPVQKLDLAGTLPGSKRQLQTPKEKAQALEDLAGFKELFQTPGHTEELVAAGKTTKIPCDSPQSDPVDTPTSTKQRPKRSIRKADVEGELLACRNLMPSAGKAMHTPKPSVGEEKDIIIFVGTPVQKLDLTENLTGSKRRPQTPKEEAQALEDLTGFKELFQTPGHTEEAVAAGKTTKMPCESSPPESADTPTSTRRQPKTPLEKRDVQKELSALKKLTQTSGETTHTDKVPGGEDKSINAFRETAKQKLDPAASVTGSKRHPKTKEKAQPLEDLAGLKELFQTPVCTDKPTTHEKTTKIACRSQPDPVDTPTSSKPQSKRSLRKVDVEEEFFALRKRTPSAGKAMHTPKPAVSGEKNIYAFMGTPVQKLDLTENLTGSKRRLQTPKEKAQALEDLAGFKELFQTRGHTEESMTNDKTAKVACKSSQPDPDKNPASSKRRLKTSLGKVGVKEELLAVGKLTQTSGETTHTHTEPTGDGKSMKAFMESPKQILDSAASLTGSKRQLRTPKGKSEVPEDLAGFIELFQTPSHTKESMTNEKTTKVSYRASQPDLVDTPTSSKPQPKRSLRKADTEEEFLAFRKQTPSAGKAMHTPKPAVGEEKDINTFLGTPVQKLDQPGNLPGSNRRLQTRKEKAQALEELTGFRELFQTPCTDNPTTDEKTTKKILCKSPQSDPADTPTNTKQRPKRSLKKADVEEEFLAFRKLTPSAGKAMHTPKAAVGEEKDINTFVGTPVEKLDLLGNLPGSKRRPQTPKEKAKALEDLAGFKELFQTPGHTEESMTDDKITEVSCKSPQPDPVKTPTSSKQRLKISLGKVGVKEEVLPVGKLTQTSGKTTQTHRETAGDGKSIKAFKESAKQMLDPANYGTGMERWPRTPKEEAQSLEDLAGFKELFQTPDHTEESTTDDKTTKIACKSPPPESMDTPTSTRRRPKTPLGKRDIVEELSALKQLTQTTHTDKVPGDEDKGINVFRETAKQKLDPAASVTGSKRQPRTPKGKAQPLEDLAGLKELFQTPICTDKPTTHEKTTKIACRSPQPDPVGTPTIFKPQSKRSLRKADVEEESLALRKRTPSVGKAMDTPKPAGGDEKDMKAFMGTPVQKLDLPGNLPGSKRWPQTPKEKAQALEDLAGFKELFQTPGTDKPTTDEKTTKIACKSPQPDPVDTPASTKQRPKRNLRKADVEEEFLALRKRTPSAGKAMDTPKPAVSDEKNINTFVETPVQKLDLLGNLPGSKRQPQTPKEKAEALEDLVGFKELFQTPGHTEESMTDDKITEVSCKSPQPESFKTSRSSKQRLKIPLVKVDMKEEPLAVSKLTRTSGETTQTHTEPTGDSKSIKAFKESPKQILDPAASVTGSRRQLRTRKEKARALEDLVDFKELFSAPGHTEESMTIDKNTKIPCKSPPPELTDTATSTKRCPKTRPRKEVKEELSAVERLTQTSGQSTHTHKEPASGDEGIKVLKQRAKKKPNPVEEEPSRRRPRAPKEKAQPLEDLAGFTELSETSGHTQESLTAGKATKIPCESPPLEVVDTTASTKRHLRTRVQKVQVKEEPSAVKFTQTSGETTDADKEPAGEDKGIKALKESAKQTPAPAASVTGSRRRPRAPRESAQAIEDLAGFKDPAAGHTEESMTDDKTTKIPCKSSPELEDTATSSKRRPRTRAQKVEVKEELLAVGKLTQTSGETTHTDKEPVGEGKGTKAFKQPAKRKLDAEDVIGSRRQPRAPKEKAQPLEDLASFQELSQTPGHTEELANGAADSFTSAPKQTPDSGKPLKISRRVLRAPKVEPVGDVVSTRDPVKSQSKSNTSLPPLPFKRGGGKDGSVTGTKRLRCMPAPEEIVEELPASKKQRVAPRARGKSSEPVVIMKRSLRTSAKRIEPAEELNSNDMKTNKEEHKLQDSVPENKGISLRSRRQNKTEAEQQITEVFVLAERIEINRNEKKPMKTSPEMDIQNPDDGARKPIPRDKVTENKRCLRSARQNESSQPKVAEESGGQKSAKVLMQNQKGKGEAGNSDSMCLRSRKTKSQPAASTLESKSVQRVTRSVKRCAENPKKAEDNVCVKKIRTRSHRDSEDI
UniProt Q14149, 742-762: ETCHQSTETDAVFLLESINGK
UniProt Q5TGZ0: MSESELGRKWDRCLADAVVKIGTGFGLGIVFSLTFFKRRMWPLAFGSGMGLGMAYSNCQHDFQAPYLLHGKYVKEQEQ
UniProt Q96T76: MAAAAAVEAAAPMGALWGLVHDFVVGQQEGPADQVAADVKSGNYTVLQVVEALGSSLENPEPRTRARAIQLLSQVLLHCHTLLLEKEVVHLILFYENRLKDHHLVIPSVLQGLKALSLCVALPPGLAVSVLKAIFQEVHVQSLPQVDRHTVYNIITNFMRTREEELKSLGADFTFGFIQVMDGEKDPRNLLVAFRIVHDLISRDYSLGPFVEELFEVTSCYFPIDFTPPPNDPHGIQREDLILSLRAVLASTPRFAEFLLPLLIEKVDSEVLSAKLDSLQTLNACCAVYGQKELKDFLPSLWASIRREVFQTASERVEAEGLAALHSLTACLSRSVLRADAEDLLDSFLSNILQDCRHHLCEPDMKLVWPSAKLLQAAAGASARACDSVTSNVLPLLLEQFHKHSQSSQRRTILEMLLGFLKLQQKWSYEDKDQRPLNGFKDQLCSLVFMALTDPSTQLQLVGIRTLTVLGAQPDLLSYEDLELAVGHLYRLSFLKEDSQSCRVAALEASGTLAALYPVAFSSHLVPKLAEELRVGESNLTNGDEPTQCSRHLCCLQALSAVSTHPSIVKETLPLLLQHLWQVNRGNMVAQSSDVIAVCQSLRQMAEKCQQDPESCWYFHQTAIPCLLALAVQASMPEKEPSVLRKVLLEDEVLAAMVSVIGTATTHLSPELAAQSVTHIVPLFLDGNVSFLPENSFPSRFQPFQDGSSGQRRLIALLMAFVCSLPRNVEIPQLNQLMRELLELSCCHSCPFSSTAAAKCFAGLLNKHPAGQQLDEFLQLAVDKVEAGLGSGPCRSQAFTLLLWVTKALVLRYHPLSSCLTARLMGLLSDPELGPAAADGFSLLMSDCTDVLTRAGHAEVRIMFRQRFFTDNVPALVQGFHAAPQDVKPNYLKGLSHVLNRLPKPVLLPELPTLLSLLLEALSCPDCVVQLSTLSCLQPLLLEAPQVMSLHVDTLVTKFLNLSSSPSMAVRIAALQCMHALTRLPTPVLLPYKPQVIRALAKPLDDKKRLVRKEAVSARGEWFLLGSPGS
UniProt A1L020, 128-150: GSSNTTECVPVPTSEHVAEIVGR
UniProt Q9H081: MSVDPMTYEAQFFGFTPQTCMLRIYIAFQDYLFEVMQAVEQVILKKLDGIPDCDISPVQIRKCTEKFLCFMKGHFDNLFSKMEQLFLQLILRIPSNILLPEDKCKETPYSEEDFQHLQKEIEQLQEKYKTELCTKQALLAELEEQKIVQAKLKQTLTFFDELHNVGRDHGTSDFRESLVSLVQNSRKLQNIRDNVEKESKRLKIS
UniProt O60244: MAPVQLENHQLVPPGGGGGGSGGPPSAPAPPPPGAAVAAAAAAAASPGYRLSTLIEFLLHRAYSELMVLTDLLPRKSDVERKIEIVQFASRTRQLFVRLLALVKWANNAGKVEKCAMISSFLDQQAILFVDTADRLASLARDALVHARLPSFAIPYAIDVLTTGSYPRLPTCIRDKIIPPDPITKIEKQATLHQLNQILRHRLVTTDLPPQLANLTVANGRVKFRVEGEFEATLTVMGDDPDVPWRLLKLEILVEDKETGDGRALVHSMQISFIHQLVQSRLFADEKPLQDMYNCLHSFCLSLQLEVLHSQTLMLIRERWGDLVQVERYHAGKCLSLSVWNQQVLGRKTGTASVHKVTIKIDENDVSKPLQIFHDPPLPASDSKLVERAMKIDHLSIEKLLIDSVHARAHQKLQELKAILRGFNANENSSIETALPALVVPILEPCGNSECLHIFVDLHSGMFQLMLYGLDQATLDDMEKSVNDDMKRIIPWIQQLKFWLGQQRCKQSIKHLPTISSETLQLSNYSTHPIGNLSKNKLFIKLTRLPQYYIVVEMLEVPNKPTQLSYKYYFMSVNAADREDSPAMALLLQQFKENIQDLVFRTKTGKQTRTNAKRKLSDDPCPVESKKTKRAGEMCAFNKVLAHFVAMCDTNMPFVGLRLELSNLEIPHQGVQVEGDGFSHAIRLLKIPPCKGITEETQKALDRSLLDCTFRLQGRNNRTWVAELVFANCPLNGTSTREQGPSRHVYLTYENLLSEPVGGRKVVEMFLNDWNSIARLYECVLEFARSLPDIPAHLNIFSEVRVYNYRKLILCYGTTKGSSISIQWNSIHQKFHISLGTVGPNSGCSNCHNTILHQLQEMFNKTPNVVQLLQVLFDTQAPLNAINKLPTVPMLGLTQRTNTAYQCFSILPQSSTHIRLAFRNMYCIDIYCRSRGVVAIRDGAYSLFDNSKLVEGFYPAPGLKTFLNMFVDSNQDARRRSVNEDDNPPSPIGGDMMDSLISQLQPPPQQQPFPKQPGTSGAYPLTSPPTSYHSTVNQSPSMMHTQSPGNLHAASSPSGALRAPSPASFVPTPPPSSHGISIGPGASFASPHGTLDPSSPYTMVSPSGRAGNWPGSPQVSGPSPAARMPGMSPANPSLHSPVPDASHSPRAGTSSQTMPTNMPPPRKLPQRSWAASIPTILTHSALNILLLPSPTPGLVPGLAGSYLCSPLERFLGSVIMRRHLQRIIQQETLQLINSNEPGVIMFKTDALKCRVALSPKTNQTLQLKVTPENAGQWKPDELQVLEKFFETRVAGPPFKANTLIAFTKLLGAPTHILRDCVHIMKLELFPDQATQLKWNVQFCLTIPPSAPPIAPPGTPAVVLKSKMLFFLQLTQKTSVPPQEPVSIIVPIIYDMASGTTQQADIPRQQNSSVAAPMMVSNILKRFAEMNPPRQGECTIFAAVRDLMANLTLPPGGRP
UniProt Q8IWA4, 420-439: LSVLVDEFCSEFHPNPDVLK
UniProt P10620: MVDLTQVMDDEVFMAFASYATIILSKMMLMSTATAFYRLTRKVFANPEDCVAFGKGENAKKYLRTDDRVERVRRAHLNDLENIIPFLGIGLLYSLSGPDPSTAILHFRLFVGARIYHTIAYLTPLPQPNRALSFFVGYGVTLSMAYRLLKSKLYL
UniProt Q14676, 1726-1749: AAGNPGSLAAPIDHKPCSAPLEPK
UniProt Q9BVC4: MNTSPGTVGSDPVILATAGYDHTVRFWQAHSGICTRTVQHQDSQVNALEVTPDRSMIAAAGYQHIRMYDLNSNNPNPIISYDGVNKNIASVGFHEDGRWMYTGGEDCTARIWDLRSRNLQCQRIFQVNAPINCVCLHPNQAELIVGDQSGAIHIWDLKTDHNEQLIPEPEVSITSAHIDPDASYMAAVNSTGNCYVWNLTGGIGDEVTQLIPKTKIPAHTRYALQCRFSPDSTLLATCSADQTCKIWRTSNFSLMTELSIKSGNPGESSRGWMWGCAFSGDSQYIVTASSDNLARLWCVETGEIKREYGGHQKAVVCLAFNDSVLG

What was measured:
[1] = compound: ClCC(=O)N[C@@H]1CCCc2ccccc12; test: log2 mean competition ratio of IA-DTB cysteine labelling (DMSO/compound) (log2 ratio); higher = stronger cysteine engagement by compound; details: treatment time: 4 h, cell line lysate: HEK293T
Method: (§1)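 IA-DTB competitive cysteine chemoproteomics in HEK293T RIPA lysate. Lysates were treated with compound 29 or 30 at 50 or 200 µM for 4 h, then IA-DTB (500 µM, 1 h), trypsin-digested, NeutrAvidin-enriched and analysed by diaPASEF. Competition ratio = intensity DMSO / intensity compound (n=4 treated, n=64 DMSO); binding: mean log2 CR ≥ 1 and p ≤ 0.05 plus QC filters. Target is the cysteine site.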

[2] = compound: ClCC(=O)N[C@H]1CCCc2ccccc12; test: as above; details: treatment time: 4 h, cell line lysate: HEK293T
Method: as §1

## MKI67 C643 (UniProt P46013)
[1]; 50 µM
  log2 mean competition ratio: -0.0367
[1]; 200 µM
  log2 mean competition ratio: 0.171
[2]; 50 µM
  log2 mean competition ratio: 0.126
[2]; 200 µM
  log2 mean competition ratio: 0.199

## MED31 C93 (UniProt Q9Y3C7)
[1]; 50 µM
  log2 mean competition ratio: -0.175
[1]; 200 µM
  log2 mean competition ratio: 0.0217
[2]; 50 µM
  log2 mean competition ratio: -0.0712
[2]; 200 µM
  log2 mean competition ratio: 0.0578

## MDN1 C3985 (UniProt Q9NU22)
[1]; 50 µM
  log2 mean competition ratio: 0.149
[1]; 200 µM
  log2 mean competition ratio: 0.218
[2]; 50 µM
  log2 mean competition ratio: 0.0177
[2]; 200 µM
  log2 mean competition ratio: 0.148

## MFHAS1 C385 (UniProt Q9Y4C4)
[1]; 50 µM
  log2 mean competition ratio: -0.0215
[1]; 200 µM
  log2 mean competition ratio: 0.356
[2]; 50 µM
  log2 mean competition ratio: -0.136
[2]; 200 µM
  log2 mean competition ratio: 0.136

## MORC3 C744 (UniProt Q14149)
[1]; 50 µM
  log2 mean competition ratio: -0.0875
[1]; 200 µM
  log2 mean competition ratio: 0.533
[2]; 50 µM
  log2 mean competition ratio: -0.0393
[2]; 200 µM
  log2 mean competition ratio: -0.193

## MKI67 C1285 (UniProt P46013)
[1]; 50 µM
  log2 mean competition ratio: 0.0547
[1]; 200 µM
  log2 mean competition ratio: 0.13
[2]; 50 µM
  log2 mean competition ratio: 0.212
[2]; 200 µM
  log2 mean competition ratio: 0.217

## MICOS10 C13 (UniProt Q5TGZ0)
[1]; 50 µM
  log2 mean competition ratio: -0.0389
[1]; 200 µM
  log2 mean competition ratio: -0.153
[2]; 50 µM
  log2 mean competition ratio: 0.673
[2]; 200 µM
  log2 mean competition ratio: 0.122

## MED23 C1069 (UniProt Q9ULK4)
[1]; 50 µM
  log2 mean competition ratio: 0.0438
[1]; 200 µM
  log2 mean competition ratio: 0.131
[2]; 50 µM
  log2 mean competition ratio: 0.588
[2]; 200 µM
  log2 mean competition ratio: 0.456

## MED24 C218
[1]; 50 µM
  log2 mean competition ratio: 0.00359
[1]; 200 µM
  log2 mean competition ratio: 0.0146
[2]; 50 µM
  log2 mean competition ratio: -0.194
[2]; 200 µM
  log2 mean competition ratio: 0.0477

## MID1 C302 (UniProt O15344)
[1]; 50 µM
  log2 mean competition ratio: -0.0613
[1]; 200 µM
  log2 mean competition ratio: -0.0451
[2]; 50 µM
  log2 mean competition ratio: 0.294
[2]; 200 µM
  log2 mean competition ratio: 0.0785

## MIS18BP1 C528
[1]; 50 µM
  log2 mean competition ratio: -0.0501
[1]; 200 µM
  log2 mean competition ratio: -0.125
[2]; 50 µM
  log2 mean competition ratio: 0.00476
[2]; 200 µM
  log2 mean competition ratio: 0.165

## MMS19 C549 (UniProt Q96T76)
[1]; 50 µM
  log2 mean competition ratio: -0.292
[1]; 200 µM
  log2 mean competition ratio: 0.454
[2]; 50 µM
  log2 mean competition ratio: -0.286
[2]; 200 µM
  log2 mean competition ratio: 0.347

## MEX3A C135 (UniProt A1L020)
[1]; 50 µM
  log2 mean competition ratio: -0.629
[1]; 200 µM
  log2 mean competition ratio: 0.299
[2]; 50 µM
  log2 mean competition ratio: -0.0815
[2]; 200 µM
  log2 mean competition ratio: 0.103

## MPG C56 (UniProt P29372)
[1]; 50 µM
  log2 mean competition ratio: -0.0711
[1]; 200 µM
  log2 mean competition ratio: 0.102
[2]; 50 µM
  log2 mean competition ratio: -0.109
[2]; 200 µM
  log2 mean competition ratio: -0.0853

## METAP2 C135 (UniProt P50579)
[1]; 50 µM
  log2 mean competition ratio: 0.19
[1]; 200 µM
  log2 mean competition ratio: -0.13
[2]; 50 µM
  log2 mean competition ratio: 0.103
[2]; 200 µM
  log2 mean competition ratio: -0.063

## MIDEAS C442, A0A1C7CYX1
[1]; 50 µM
  log2 mean competition ratio: -0.0236
[1]; 200 µM
  log2 mean competition ratio: 0.11
[2]; 50 µM
  log2 mean competition ratio: -0.000751
[2]; 200 µM
  log2 mean competition ratio: 0.209

## MPDZ C297 (UniProt O75970)
[1]; 50 µM
  log2 mean competition ratio: -0.164
[1]; 200 µM
  log2 mean competition ratio: 0.000221
[2]; 50 µM
  log2 mean competition ratio: 0.189
[2]; 200 µM
  log2 mean competition ratio: 0.0374

## MIS12 C133 (UniProt Q9H081)
[1]; 50 µM
  log2 mean competition ratio: 0.0219
[1]; 200 µM
  log2 mean competition ratio: -0.223
[2]; 50 µM
  log2 mean competition ratio: 0.387
[2]; 200 µM
  log2 mean competition ratio: 0.0475

## MED14 C621 (UniProt O60244)
[1]; 50 µM
  log2 mean competition ratio: -0.126
[1]; 200 µM
  log2 mean competition ratio: -0.136
[2]; 50 µM
  log2 mean competition ratio: -0.155
[2]; 200 µM
  log2 mean competition ratio: -0.157

## MRM3 C244 (UniProt Q9HC36)
[1]; 50 µM
  log2 mean competition ratio: 0.623
[1]; 200 µM
  log2 mean competition ratio: 0.335
[2]; 50 µM
  log2 mean competition ratio: 0.479
[2]; 200 µM
  log2 mean competition ratio: 0.207

## METTL26 C63 (UniProt Q96S19)
[1]; 50 µM
  log2 mean competition ratio: -0.345
[1]; 200 µM
  log2 mean competition ratio: 0.152
[2]; 50 µM
  log2 mean competition ratio: 0.521
[2]; 200 µM
  log2 mean competition ratio: -0.206

## MED23 C1319 (UniProt Q9ULK4)
[1]; 50 µM
  log2 mean competition ratio: 0.313
[1]; 200 µM
  log2 mean competition ratio: -0.318
[2]; 50 µM
  log2 mean competition ratio: -0.0669
[2]; 200 µM
  log2 mean competition ratio: -0.353

## MED12 C997 (UniProt Q93074)
[1]; 50 µM
  log2 mean competition ratio: -0.0405
[1]; 200 µM
  log2 mean competition ratio: -0.393
[2]; 50 µM
  log2 mean competition ratio: 0.0364
[2]; 200 µM
  log2 mean competition ratio: 0.0658

## MFN1 C428 (UniProt Q8IWA4)
[1]; 50 µM
  log2 mean competition ratio: 0.00404
[1]; 200 µM
  log2 mean competition ratio: -0.179
[2]; 50 µM
  log2 mean competition ratio: -0.58
[2]; 200 µM
  log2 mean competition ratio: 0.33

## MMTAG2 C58 (UniProt Q9BU76)
[1]; 50 µM
  log2 mean competition ratio: -0.0214
[1]; 200 µM
  log2 mean competition ratio: -0.059
[2]; 50 µM
  log2 mean competition ratio: -0.289
[2]; 200 µM
  log2 mean competition ratio: 0.295

## MIS12 C53 (UniProt Q9H081)
[1]; 50 µM
  log2 mean competition ratio: -0.206
[1]; 200 µM
  log2 mean competition ratio: -0.193
[2]; 50 µM
  log2 mean competition ratio: -0.468
[2]; 200 µM
  log2 mean competition ratio: -0.209

## MED16 C584 (UniProt Q9Y2X0)
[1]; 50 µM
  log2 mean competition ratio: -0.172
[1]; 200 µM
  log2 mean competition ratio: -0.147
[2]; 50 µM
  log2 mean competition ratio: -0.169
[2]; 200 µM
  log2 mean competition ratio: -0.0785

## MKI67 C903 (UniProt P46013)
[1]; 50 µM
  log2 mean competition ratio: -0.259
[1]; 200 µM
  log2 mean competition ratio: -0.178
[2]; 50 µM
  log2 mean competition ratio: 0.0136
[2]; 200 µM
  log2 mean competition ratio: 0.0118

## MDK C61 (UniProt P21741)
[1]; 50 µM
  log2 mean competition ratio: 0.0717
[1]; 200 µM
  log2 mean competition ratio: 0.471
[2]; 50 µM
  log2 mean competition ratio: -0.0213
[2]; 200 µM
  log2 mean competition ratio: 0.321

## MKNK1 C219 (UniProt Q9BUB5)
[1]; 50 µM
  log2 mean competition ratio: -0.656
[1]; 200 µM
  log2 mean competition ratio: 0.162
[2]; 50 µM
  log2 mean competition ratio: -0.81
[2]; 200 µM
  log2 mean competition ratio: -0.173

## MICALL2 C271 (UniProt Q8IY33)
[1]; 50 µM
  log2 mean competition ratio: 0.178
[1]; 200 µM
  log2 mean competition ratio: 0.00157
[2]; 50 µM
  log2 mean competition ratio: 0.0961
[2]; 200 µM
  log2 mean competition ratio: 0.171

## MGST1 C50 (UniProt P10620)
[1]; 50 µM
  log2 mean competition ratio: -0.103
[1]; 200 µM
  log2 mean competition ratio: -0.0794
[2]; 50 µM
  log2 mean competition ratio: -0.356
[2]; 200 µM
  log2 mean competition ratio: -0.101

## MGA C1295 (UniProt Q8IWI9)
[1]; 50 µM
  log2 mean competition ratio: 0.173
[1]; 200 µM
  log2 mean competition ratio: 0.244
[2]; 50 µM
  log2 mean competition ratio: -0.293
[2]; 200 µM
  log2 mean competition ratio: -0.151

## MICAL2 C703 (UniProt O94851)
[1]; 50 µM
  log2 mean competition ratio: 0.0315
[1]; 200 µM
  log2 mean competition ratio: -0.0326
[2]; 50 µM
  log2 mean competition ratio: 0.183
[2]; 200 µM
  log2 mean competition ratio: 0.159

## MIS12 C104 (UniProt Q9H081)
[1]; 50 µM
  log2 mean competition ratio: 0.00705
[1]; 200 µM
  log2 mean competition ratio: -0.206
[2]; 50 µM
  log2 mean competition ratio: -0.486
[2]; 200 µM
  log2 mean competition ratio: -0.327

## MDC1 C1742 (UniProt Q14676)
[1]; 50 µM
  log2 mean competition ratio: 0.074
[1]; 200 µM
  log2 mean competition ratio: 0.0204
[2]; 50 µM
  log2 mean competition ratio: 0.157
[2]; 200 µM
  log2 mean competition ratio: -0.0554

## MLST8 C107 (UniProt Q9BVC4)
[1]; 50 µM
  log2 mean competition ratio: 0.0493
[1]; 200 µM
  log2 mean competition ratio: -0.227
[2]; 50 µM
  log2 mean competition ratio: 0.314
[2]; 200 µM
  log2 mean competition ratio: -0.0943

## MDK C52 (UniProt P21741)
[1]; 50 µM
  log2 mean competition ratio: 0.063
[1]; 200 µM
  log2 mean competition ratio: 0.124
[2]; 50 µM
  log2 mean competition ratio: -0.404
[2]; 200 µM
  log2 mean competition ratio: 0.05

## MORF4L2 C165 (UniProt Q15014)
[1]; 50 µM
  log2 mean competition ratio: -0.261
[1]; 200 µM
  log2 mean competition ratio: 0.397
[2]; 50 µM
  log2 mean competition ratio: -0.276
[2]; 200 µM
  log2 mean competition ratio: 0.301

## MED13 C1756 (UniProt Q9UHV7)
[1]; 50 µM
  log2 mean competition ratio: 0.022
[1]; 200 µM
  log2 mean competition ratio: 0.143
[2]; 50 µM
  log2 mean competition ratio: 0.0632
[2]; 200 µM
  log2 mean competition ratio: 0.211

## MORC3 C671 (UniProt Q14149)
[1]; 50 µM
  log2 mean competition ratio: -0.35
[1]; 200 µM
  log2 mean competition ratio: -0.201
[2]; 50 µM
  log2 mean competition ratio: -0.202
[2]; 200 µM
  log2 mean competition ratio: -0.224

## MED25 C429 (UniProt Q71SY5)
[1]; 50 µM
  log2 mean competition ratio: 0.437
[1]; 200 µM
  log2 mean competition ratio: 0.0121
[2]; 50 µM
  log2 mean competition ratio: -0.147
[2]; 200 µM
  log2 mean competition ratio: -0.0858
